The source gives many values for each of these; only a part stands here.
Tested on: KBM7 WT cells (global proteome)
Assay: Quantitative expression proteomics (TMT isobaric tagging), drug vs DMSO
Type: cell-based, human
Source text: The mechanism by which the assayed molecules re-program a functional CRL4B complex based on the data shown could be that drug binding to CUL4B recruits a neo-substrate directly to the cullin backbone. Alternatively, drug binding could stabilize CUL4B function to boost time intervals where a functionally competent CUL4B complexes can be formed. Here, the word “functional” implies that the CUL4B backbone of this complex needs to be neddylated, and a CUL4B associated E2 ubiquitin-conjugating enzyme (UBE2G1) needs to be bound. FIG. 9 outlines one possible mechanism. Both predicted mechanisms of action would result in a functionally altered CRL4B complex, and thus an altered stability of drug-induced (neo-) substrates. In order to identify target proteins with a decreased abundance or, in other words, target proteins that become degraded by CRL4B after drug treatment, global proteome composition was measured using quantitative expression proteomics (TMT-labeling). In brief, KBM7 cells were drug treated for 12 hours, lysed, and subjected to isobaric tagging. Ensuing proteomics analysis quantified a total of 7,903 proteins at a minimum spectral count of 2. […] Data on essentiality are taken from Hart et al., G3, August 2017 (PMID: 28655737).
50×10^6 KBM7^WT cells per condition were collected, washed four times with ice-cold PBS, the supernatant aspirated and pellets snap-frozen in liquid N2. Each washed cell pellet was lysed separately in 40 μL of freshly prepared lysis buffer as previously described (see Mayor-Ruiz et al., Mol Cell 2019)
Offline Fractionation via RP-HPLC at high pH and 2D-RP/RP Liquid Chromatography Mass Spectrometry were performed as previously described (see Mayor-Ruiz et al., Mol Cell 2019).
Acquired raw data files were processed using the Proteome Discoverer 2.2.0 platform, utilizing the Sequest HT database search engine and Percolator validation software node (V3.04) to remove false positives with a false discovery rate (FDR) of 1% on peptide and protein level under strict conditions. Searches were performed with full tryptic digestion against the human SwissProt database v2017.06 with up to two allowed miscleavage sites. Oxidation (+15.9949 Da) of methionine was set as variable modification, whilst carbamidomethylation (+57.0214 Da) of cysteine residues and TMT 6-plex labelling of peptide N-termini and lysine residues were set as fixed modifications. Data was searched with mass tolerances of ±10 ppm and ±0.02 Da on the precursor and fragment ions, respectively. Results were filtered to include peptide spectrum matches (PSMs) with Sequest HT cross-correlation factor (Xcorr) scores of […] and high peptide confidence assigned by Percolator. MS^2 signal-to-noise values (S/N) values of TMT reporter ions were used to estimate peptide/protein abundance changes. PSMs with precursor isolation interference values of ≥ 50% and average TMT-reporter ion S/N≤10 were excluded from quantitation. Only unique peptides were used for TMT quantitation as well as for TOP3 label-free quantitation. Isotopic impurity correction and TMT channel-normalization based on total peptide amount were applied. For statistical analysis and p-value calculation, the integrated ANOVA hypothesis test was used. TMT ratios with p-values below 0.01 were considered as significant. Only proteins with >1 peptide detected and >1 unique peptide detected were considered for further analysis. For the calling of destabilized proteins, a log 2 fold change threshold (drug/DMSO) of −0.3 was applied.
Comparison of overall proteome-wide changes in KBM7 cells treated with IC020772.1 (2.5 μM), IC021313.2 (7 μM) or T6938051 (3.5 μM) for 5 h and 12h, using quantitative proteomics based on isobaric tagging.
The protein names in Table 4, Table 5 and Table 6 refer to the protein names as provided by HUGO Gene Nomenclature Committee (HGNC) database. […]

O=C(CSc1nnc2c(n1)[nH]c1ccccc12)Nc1ccc(Cl)cn1 [IC020772.1]
log2FC (IC020772.1/DMSO) (VDR (P11473-2)): −0.484
log2FC (IC020772.1/DMSO) (WAS (P42768)): −0.3437
log2FC (IC020772.1/DMSO) (WDR76 (Q9H967)): −0.3201
log2FC (IC020772.1/DMSO) (XPR1 (Q9UBH6-1)): −0.3659
log2FC (IC020772.1/DMSO) (YBX1 (P67809)): −0.3715
log2FC (IC020772.1/DMSO) (YIPF6 (Q96EC8-1)): −0.4403
log2FC (IC020772.1/DMSO) (ZCCHC7 (Q8N3Z6-1)): −0.3997
log2FC (IC020772.1/DMSO) (ZFAND6 (Q6FIF0-1)): −0.3677
log2FC (IC020772.1/DMSO) (ZFPL1 (O95159)): −0.8186
log2FC (IC020772.1/DMSO) (ZNF317 (Q96PQ6-1)): −0.48
log2FC (IC020772.1/DMSO) (ZNF324 (O75467)): −0.4035
log2FC (IC020772.1/DMSO) (ZNF706 (Q9Y5V0)): −0.4364
log2FC (IC020772.1/DMSO) (ZNF813 (Q6ZN06)): −0.3456
log2FC (IC020772.1/DMSO) (ZNRF1 (Q8ND25-1)): −0.4422
log2FC (IC020772.1/DMSO) (ZWILCH (Q9H900-1)): −0.3959
log2FC (IC020772.1/DMSO) (protein AFTPH (Q6ULP2-1)): −0.3273
log2FC (IC020772.1/DMSO) (protein ALKBH4 (Q9NXW9-1)): −0.3076
log2FC (IC020772.1/DMSO) (protein APOBR (QOVD83-4)): −0.3058
log2FC (IC020772.1/DMSO) (protein ARFIP2 (P53365-1)): −0.3058
log2FC (IC020772.1/DMSO) (protein ARHGAP15 (Q53QZ3)): −0.3111
log2FC (IC020772.1/DMSO) (protein BIRC5 (O15392-1)): −0.3219
log2FC (IC020772.1/DMSO) (protein BLM (P54132)): −0.3219
log2FC (IC020772.1/DMSO) (protein BSDC1 (Q9NW68-1)): −0.3094
log2FC (IC020772.1/DMSO) (protein C8orf33 (Q9H7E9-2)): −0.3273
log2FC (IC020772.1/DMSO) (protein C12orf65 (Q9H3J6-1)): −0.3237
log2FC (IC020772.1/DMSO) (protein CAPN7 (Q9Y6W3)): −0.3129
log2FC (IC020772.1/DMSO) (protein CDCA8 (Q53HL2)): −0.3292
log2FC (IC020772.1/DMSO) (protein CHTF8 (P0CG12-1)): −0.3273
log2FC (IC020772.1/DMSO) (protein CLDND1 (Q9NY35-1)): −0.3255
log2FC (IC020772.1/DMSO) (protein CLPB (Q9H078-2)): −0.3237
log2FC (IC020772.1/DMSO) (protein CNOT7 (Q9UIV1-1)): −0.3058
log2FC (IC020772.1/DMSO) (protein COA6 (Q5JTJ3-2)): −0.304
log2FC (IC020772.1/DMSO) (protein COPS7A (Q9UBW8)): −0.3273
log2FC (IC020772.1/DMSO) (protein DDX49 (Q9Y6V7-1)): −0.3058
log2FC (IC020772.1/DMSO) (protein DHPS (P49366-1)): −0.3094
log2FC (IC020772.1/DMSO) (protein DIAPH3 (Q9NSV4-3)): −0.304
log2FC (IC020772.1/DMSO) (protein EIF3M (Q7L2H7-1)): −0.3111
log2FC (IC020772.1/DMSO) (protein EPN1 (Q9Y6I3-2)): −0.3076
log2FC (IC020772.1/DMSO) (protein ERBIN (Q96RT1-8)): −0.304
log2FC (IC020772.1/DMSO) (protein FAM118A (Q9NWS6-1)): −0.3129
log2FC (IC020772.1/DMSO) (protein FBRSL1 (Q9HCM7)): −0.3219
log2FC (IC020772.1/DMSO) (protein FGFR1OP (O95684-1)): −0.3094
log2FC (IC020772.1/DMSO) (protein GBP1 (P32455)): −0.3094
log2FC (IC020772.1/DMSO) (protein GTF2E2 (P29084)): −0.3094
log2FC (IC020772.1/DMSO) (protein HINFP (Q9BQA5-1)): −0.3219
log2FC (IC020772.1/DMSO) (protein KIAA0586 (Q9BVV6-3)): −0.3076
log2FC (IC020772.1/DMSO) (protein KIAA0907 (Q7Z7F0-1)): −0.3058
log2FC (IC020772.1/DMSO) (protein LRP4 (O75096)): −0.3237
log2FC (IC020772.1/DMSO) (protein MARK4 (Q96L34-1)): −0.3058
log2FC (IC020772.1/DMSO) (protein MB21D1 (Q8N884-1)): −0.3004
log2FC (IC020772.1/DMSO) (protein MITD1 (Q8WV92)): −0.3058
log2FC (IC020772.1/DMSO) (protein MKL2 (Q9ULH7-5)): −0.3058
log2FC (IC020772.1/DMSO) (protein MLKL (Q8NB16-1)): −0.3129
log2FC (IC020772.1/DMSO) (protein MRPL55 (Q7Z7F7-2)): −0.304
log2FC (IC020772.1/DMSO) (protein NIN (Q8N4C6-7)): −0.304
log2FC (IC020772.1/DMSO) (protein NOA1 (Q8NC60)): −0.3292
log2FC (IC020772.1/DMSO) (protein NPRL3 (Q12980)): −0.304
log2FC (IC020772.1/DMSO) (protein NRDC (O43847-2)): −0.3022
log2FC (IC020772.1/DMSO) (protein NUP37 (Q8NFH4)): −0.3111
log2FC (IC020772.1/DMSO) (protein PIGH (Q14442)): −0.3111
log2FC (IC020772.1/DMSO) (protein PNO1 (Q9NRX1)): −0.3255
log2FC (IC020772.1/DMSO) (protein POCIA (Q8NBT0-1)): −0.3237
log2FC (IC020772.1/DMSO) (protein POT1 (Q9NUX5-1)): −0.3094
log2FC (IC020772.1/DMSO) (protein PPP1R14A (Q96A00-1)): −0.3076
log2FC (IC020772.1/DMSO) (protein PPT2 (Q9UMR5-3)): −0.3058
log2FC (IC020772.1/DMSO) (protein PRMT3 (O60678-1)): −0.3129
log2FC (IC020772.1/DMSO) (protein PSMC3IP (Q9P2W1-1)): −0.3273
log2FC (IC020772.1/DMSO) (protein PSMG1 (O95456-1)): −0.3292
log2FC (IC020772.1/DMSO) (protein RGPD8 (O14715)): −0.304
log2FC (IC020772.1/DMSO) (protein RPF2 (Q9H7B2)): −0.3273
log2FC (IC020772.1/DMSO) (protein RRP36 (Q96EU6-1)): −0.3255
log2FC (IC020772.1/DMSO) (protein SH3BP5L (Q7L8J4-1)): −0.3292
log2FC (IC020772.1/DMSO) (protein SKP2 (Q13309-1)): −0.304
log2FC (IC020772.1/DMSO) (protein SLC3A2 (P08195-1)): −0.3273
log2FC (IC020772.1/DMSO) (protein SLC38A1 (Q9H2H9)): −0.304
log2FC (IC020772.1/DMSO) (protein SLITRK5 (O94991-1)): −0.3273
log2FC (IC020772.1/DMSO) (protein SORBS1 (Q9BX66-12)): −0.3237
log2FC (IC020772.1/DMSO) (protein SP110 (Q9HB58-7)): −0.3255
log2FC (IC020772.1/DMSO) (protein SPOP (O43791)): −0.3255
log2FC (IC020772.1/DMSO) (protein ST6GAL1 (P15907-1)): −0.3255
log2FC (IC020772.1/DMSO) (protein SURF2 (Q15527)): −0.3219
log2FC (IC020772.1/DMSO) (protein TAF9B (Q9HBM6)): −0.3022
log2FC (IC020772.1/DMSO) (protein TCF3 (P15923-2)): −0.3111
log2FC (IC020772.1/DMSO) (protein TMEM237 (Q96Q45-3)): −0.3058
log2FC (IC020772.1/DMSO) (protein TUT1 (Q9H6E5)): −0.3129
log2FC (IC020772.1/DMSO) (protein UBE3D (Q7Z6J8)): −0.3058
log2FC (IC020772.1/DMSO) (protein VAMP8 (Q9BV40)): −0.3111
log2FC (IC020772.1/DMSO) (protein WDR73 (Q6P4I2)): −0.304
log2FC (IC020772.1/DMSO) (protein WWP2 (O00308-1)): −0.3111
log2FC (IC020772.1/DMSO) (protein XK (P51811)): −0.3058
log2FC (IC020772.1/DMSO) (protein ZCCHC2 (Q9C0B9-1)): −0.3076
log2FC (IC020772.1/DMSO) (protein ZNF566 (Q969W8-2)): −0.3094

Reference: patent US12410152B2, “Oxazole and thioazole-type cullin ring ubiquitin ligase compounds and uses thereof” (Proxygen GmbH, priority 2019, dated 2025)
